These are yes or no findings as the source states them, for the method shown. Some entries that bind do so weakly or less than the wild type.
Target: truncated Aurora B (55-344) (UniProt Q96GD4)
Assay: SEC

Chains of the proteins cited; added tags and fusions are not shown. Residues count along the entry.
UniProt Q96GD4, 55-344: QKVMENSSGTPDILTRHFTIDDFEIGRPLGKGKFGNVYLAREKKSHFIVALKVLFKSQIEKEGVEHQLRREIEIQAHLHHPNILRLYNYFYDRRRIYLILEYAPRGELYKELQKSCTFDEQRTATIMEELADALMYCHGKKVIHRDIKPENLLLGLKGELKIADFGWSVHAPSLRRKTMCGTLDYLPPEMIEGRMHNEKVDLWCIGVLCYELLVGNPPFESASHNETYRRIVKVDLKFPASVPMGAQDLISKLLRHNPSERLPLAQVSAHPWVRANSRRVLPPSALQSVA
UniProt Q9NQS7, 835-903: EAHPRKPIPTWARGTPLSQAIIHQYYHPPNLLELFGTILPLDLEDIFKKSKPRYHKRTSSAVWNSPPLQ

binding: binds
Substance: C-terminus of INCENP (835-903) (from UniProt Q9NQS7 835-903) (domain or fragment)

— article doi:10.1101/2022.05.24.493195 (bioRxiv, 2022)
